Reference: PubChem BioAssay AID720597 (Broad Institute, 2013)
The inconclusive results got no clear call from the source; some entries with a clear call stand among them for comparison. Calls of active or inactive are those of the source.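 Rule for the calls: active = fitted half-maximal dose no more than twice the top valid tested dose, for compounds that lower signal; inconclusive = fit invalid, or curve flat with activity between -70 and -30; inactive = potency past limit, curve flat within ±30, or signal increasing.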

Protein sequences, listed by entry. Tags and fused reporters are not part of them. Lines headed by an entry give the natural chain unless they say otherwise; changes in a name come on top.
UniProt Q9NXA8: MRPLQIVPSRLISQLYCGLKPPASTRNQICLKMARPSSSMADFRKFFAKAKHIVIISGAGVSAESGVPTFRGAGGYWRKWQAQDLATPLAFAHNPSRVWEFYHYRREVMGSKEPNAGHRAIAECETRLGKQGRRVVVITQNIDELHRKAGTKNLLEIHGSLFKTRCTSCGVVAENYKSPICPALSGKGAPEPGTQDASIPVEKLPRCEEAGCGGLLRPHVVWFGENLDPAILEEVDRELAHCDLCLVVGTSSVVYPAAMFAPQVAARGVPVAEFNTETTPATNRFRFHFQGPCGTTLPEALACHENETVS

What follows are compounds tested against NAD-dependent protein deacylase sirtuin-5, mitochondrial (Homo sapiens) (UniProt Q9NXA8) (assay: blockers of sirtuin-5 peptide desuccinylation – biochemical, fluorescence imaging, cherry-pick, set 6, dose response (AID 720597;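 note: lower AMC signal can also come from blocking the trypsin step; 0% = median of neutral control wells and -100% = median of positive control wells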)). Conditions: Purified SirT5, succinyl-peptide-AMC/trypsin fluorescence; at 15 µM (top of the series) unless noted.
In the case of CCNC(=O)[C@@H]1[C@@H](CO)[C@@H]2Cn3c(ccc(-c4cccnc4)c3=O)[C@@H]2N1Cc1ccc2c(c1)OCO2, the activity change, negative = inhibition is reported as inconclusive: -24.4%.
For CCCC(=O)Nc1ccc2c(c1)OC[C@@H](C)N(Cc1ccccc1)C[C@H](C)[C@@H](OC)CN(C)C2=O, the activity change, negative = inhibition was inactive: -11.1%.
In the case of CCCC(=O)Nc1ccc2c(c1)OC[C@H](C)N(Cc1ccccc1)C[C@@H](C)[C@@H](OC)CN(C)C2=O, the activity change, negative = inhibition is reported as inconclusive: -29.2%.
With O=C(CCN1CCCCC1)N[C@@H]1CC[C@@H](CC(=O)N2CCC(Cc3ccccc3)CC2)O[C@H]1CO the activity change, negative = inhibition was inactive: 0.115%.
C[C@@H]1CCCCO[C@H](CN(C)C(=O)Nc2ccc(C(F)(F)F)cc2)[C@@H](C)CN([C@@H](C)CO)C(=O)c2cc(NS(=O)(=O)c3ccc(Cl)cc3)ccc2O1 was tested, and the activity change, negative = inhibition was inconclusive: 13.4%.
O=C(CCN1CCCCC1)N[C@H]1CC[C@@H](CC(=O)N2CCC(Cc3ccccc3)CC2)O[C@H]1CO was tested, and the activity change, negative = inhibition was inconclusive: -26.4%.
In the case of C[C@H]1CCCCO[C@H](CN(C)Cc2ccc(C(F)(F)F)cc2)[C@@H](C)CN([C@@H](C)CO)C(=O)c2cc(NS(=O)(=O)c3ccc(F)cc3)ccc2O1, the activity change, negative = inhibition is reported as inconclusive: -28.4%.
With COc1ccc2c3c(n(C)c2c1)[C@@H](CO)N(C(=O)Nc1cccc(F)c1)CC31CCN(Cc2nccs2)CC1 the activity change, negative = inhibition was inconclusive: -35.6%.
COc1ccc(CN(C)C[C@H]2Oc3c(NC(=O)c4ccc(-c5nccs5)cc4)cccc3C(=O)N([C@@H](C)CO)C[C@@H]2C)cc1 was tested, and the activity change, negative = inhibition was inconclusive: -30.1%.
In the case of CCCC(=O)Nc1ccc2c(c1)OC[C@@H](C)N(Cc1ccccc1)C[C@@H](C)[C@H](OC)CN(C)C2=O, the activity change, negative = inhibition is reported as inconclusive: -31.7%.
C[C@H](CO)N1C[C@H](C)[C@H](CN(C)S(=O)(=O)c2ccc(C#N)cc2)Oc2ncc(C#Cc3ccc(C(F)(F)F)cc3)cc2C1=O was tested, and the activity change, negative = inhibition was inconclusive: -32.8% [at 3.8 µM].
C[C@@H]1CN([C@@H](C)CO)C(=O)Cc2cc(NS(=O)(=O)c3ccccc3)ccc2O[C@H]1CN(C)Cc1ccc(Cl)c(Cl)c1 was tested, and the activity change, negative = inhibition was inconclusive: -32.1%.
With CCOC(=O)N(C)C[C@@H]1OCc2ccccc2-c2ccccc2C(=O)N([C@@H](C)CO)C[C@H]1C the activity change, negative = inhibition was inactive: 12.9%.
